Patent publication US20050112108

Key:
[1] = target: GAAP-1 mtZ2 second zinc finger Cys/His substituted by Arg (positions not given) (Homo sapiens) (UniProt P15822); experiment: EMSA; settings: protein translated in vitro; label: 32P
[2] = target: GAAP-1 mtZ1 first zinc finger Cys/His substituted by Arg (positions not given) (Homo sapiens) (UniProt P15822); experiment: EMSA; settings: protein translated in vitro; label: 32P

| Sequence | binding result [1] | binding result [2] |
| --- | --- | --- |
| AATGCAGGATTCCTCCAAAATGATTTCCAC (double strand) [IPCS-p53 EMSA probe] | no binding | no binding |
| GATCCTCTGGGGATTCCCCATGGA (double strand) [NF-kB-MHC] | no binding | no binding |

For at least one entry, the source does not settle the construct or the ends of the probe. No signal at the amounts used counts as a negative.
